Test results reported in the supplement of paper PMC6445147.
This is a noisy data set.

B1: human tRNA-Pro; a variant is named by its letters at N, in order (parent)
chain: GGCTCGTTGGTCTAGNGGTATGATTCTCGCTTAGGGTGCGAGAGGTCCCGGGTTCNNATCCCGGACGAGCCC

How the values were obtained:
[1] = variants of: B1; experiment: tRNA Pol-III promoter activity, log2 (circRNA frequency / plasmid DNA frequency) (log2 ratio); higher = stronger promoter activity; settings: HEK293T; construct: no Pol-II promoter ((-)CMV library)
[2] = variants of: B1; experiment: tRNA 3' processing efficiency (processed reads / all reads, maximum-likelihood estimate) (fraction); higher = more efficient 3' processing; settings: HEK293T; construct: no Pol-II promoter ((-)CMV library)
[3] = variants of: B1; experiment: tRNA 5' processing efficiency (processed reads / all reads, maximum-likelihood estimate) (fraction); higher = more efficient 5' processing; settings: HEK293T; construct: CMV Pol-II promoter ((+)CMV library, decapped)

Variant | tRNA Pol-III promoter activity (log2) [1] | tRNA 3' processing efficiency [2] | tRNA 5' processing efficiency [3]
GGCTCGTTGGTCTGGTGGTATGATTCTCGCTTAGGGTGCGAGAGGTCCCGGGTTCATGTCCCGGACGAGCCC [TAT A14G A58G] | 4.94 | 0.2 | 
GGCTCGTTGGTCTAGTGGTATGATTCTCGCTTAGGGTGCGAGAGGTCCCGGGTTCTGCTCCCGGACGAGCCC [TTG A58C] | 6.25 | 0.2 | 
GGCTCGTTGGTCTGGGGGTATGATTCTCGCTTAGGGTGCGAGAGGTCCCGGGATCAAAGCCCGGACGAGCCC [GAA A14G T53A T59G] | 3.19 | 0.4 | 
GGCTCGTCGGTCTAGGGGTATGATTCTCGCTTAGGGTGCGAGAGGTCCCGGGTTCTAATCCCGGACGAGCCC [GTA T8C] | 0.786 | 0.37 | 
GGCTCGTTGGTCTCGGGGTATGATTCTCGCTTAGGGTGCGAGAGGTCCCGGGTTCAACGCCCGGACGAGCCC [GAA A14C A58C T59G] | 3.28 | 0.57 | 
GGCTCGTTGGTCTAGGGGGATGATTCTCGCTTAGGGTGCGAGAGGTCCCGGGTTCAATTCCCGGACGAGCCC [GAA T19G A58T] | 1.04 | 0.4 | 
GGCTCGTTGGTCTGATGGTATGATTCTCGCTTAGGGTGCGAGAGGTCCCGGGTTCAAATCCCGGACGAGCCC [TAA A14G G15A] | 2.57 | 0.25 | 
GGCTCGTTGGTCTTGGGGGATGATTCTCGCTTAGGGTGCGAGAGGTCCCGGGTTCAGATCCCGGACGAGCCC [GAG A14T T19G] | 3.36 | 0.38 | 
GGCTCGTTGGTCTAGGGGTTTGATTCTCGCTTAGGGTGCGAGAGGTCCCGGGCTCAAATCCCGGACGAGCCC [GAA A20T T53C] | 0.723 | 0.26 | 0.33
GGCTCGTTAGTCTAGGGGTATGATTCTCGCTTAGGGTGCGAGAGGTCCCGGGTACAAATCCCGGACGAGCCC [GAA G9A T54A] | 0.94 | 0.25 | 
GACTCGTTGGTCTAGGGGTATGATTCTCGCTTAGGGTGCGAGAGGTCCCGGGTTCGAATCCCGGACGAGCCC [GGA G2A] | 5.62 | 0.5 | 
GGCTCGTTCGTCTAGGGGTATGATTCTCGCTTAGGGTGCGAGAGGTCCCGGGTTCACATCCCGGACGAGCCC [GAC G9C] | -0.246 | 0.42 | 
GGCTCGTTGGTCTAGAGGTATGATTCTCGCTTAGGGTGCGAGAGGTCCCGGGTTCTATTCCCGGACGAGCCC [ATA A58T] | 5.26 | 0.43 | 
GGCTCGTTAGTCTTGGGGTATGATTCTCGCTTAGGGTGCGAGAGGTCCCGGGTTCATATCCCGGACGAGCCC [GAT G9A A14T] | 5.64 | 0.16 | 
GGCTCGTGGGTCTAGGGTTATGATTCTCGCTTAGGGTGCGAGAGGTCCCGGGTTCCAATCCCGGACGAGCCC [GCA T8G G18T] | 3.62 | 0.25 | 
GGCTCGTTGGTCTAGGGATATGATTCTCGCTTAGGGTGCGAGAGGTCCCGGGTTCATATCCCGGACGAGCCC [GAT G18A] | 2.38 | 0.41 | 
GGCTCGTTGGTCTAGCGGAATGATTCTCGCTTAGGGTGCGAGAGGTCCCGGGTTCGAATCCCGGACGAGCCC [CGA T19A] | 3.93 | 0.4 | 
GGCTCGTTGGTCTAGGGGTATGATTCTCGCTTAGGGTGCGAGAGGTCCCGGGCTCAAGACCCGGACGAGCCC [GAA T53C A58G T59A] | 4.51 | 0.4 | 

Variant | tRNA Pol-III promoter activity (log2) [1] | tRNA 3' processing efficiency [2] | tRNA 5' processing efficiency [3]
GGCTCGTTGGTCTCGGGGTATGATTCTCGCTTAGGGTGCGAGAGGTCCCGGGCCCAAATCCCGGACGAGCCC [GAA A14C T53C T54C] | 4.46 | 0.7 | 
GGCTCGTGGGTCTAGGGGTATGATTCTCGCTTAGGGTGCGAGAGGTCCCGGGTTCATATCCCGGACGAGCCC [GAT T8G] | -0.233 | 0.33 | 0.2
GGCTCGTTGGTCTGGGGGTATGATTCTCGCTTAGGGTGCGAGAGGTCCCGGGTTCGGATCCCGGACGAGCCC [GGG A14G] | 5.68 | 0.02 | 
GGCTCGTTGGTCTTGCGGGATGATTCTCGCTTAGGGTGCGAGAGGTCCCGGGTTCAAATCCCGGACGAGCCC [CAA A14T T19G] | 3.68 | 0.15 | 
GGCTCGTTGGTCTAGGGGAATGATTCTCGCTTAGGGTGCGAGAGGTCCCGGGTTCAGATCCCGGACGAGCCC [GAG T19A] | 3.34 | 0.45 | 
GGCTCGTTGGTCTAGGGGTATGATTCTCGCTTAGGGTGCGAGAGGTCCCGGGATCAAGCCCCGGACGAGCCC [GAA T53A A58G T59C] | 3.68 | 0.2 | 
GGCTCGTTGGTCTAATGGGATGATTCTCGCTTAGGGTGCGAGAGGTCCCGGGTTCTAATCCCGGACGAGCCC [TTA G15A T19G] | 5.25 | 0.4 | 
GGCTCGTTGGTCTAGGGGTATGATTCTCGCTTAGGGTGCGAGAGGTCCCGGGATCAAGACCCGGACGAGCCC [GAA T53A A58G T59A] | 4.2 | 0.56 | 
GGCTCGTTGGTCTAGGGGTATGATTCTCGCTTAGGGTGCGAGAGGTCCCGGGTTCTTACCCCGGACGAGCCC [GTT T59C] | 3.32 | 0.25 | 
GGCTCGTTGGTCTAGGGGTATGATTCTCGCTTAGGGTGCGAGAGGTCCCGGGTTCACATCCCGGACGAGCCC [GAC] | 1.7 | 0.27 | 0.21
GGCTCGTTGGTCTAGTGGTGTGATTCTCGCTTAGGGTGCGAGAGGTCCCGGGATCAATTCCCGGACGAGCCC [TAA A20G T53A A58T] | 6.03 | 0.25 | 
GGCTCGTTGGTCTAGGGGGATGATTCTCGCTTAGGGTGCGAGAGGTCCCGGGTTCAAGACCCGGACGAGCCC [GAA T19G A58G T59A] | 4.67 | 0.2 | 
GGCTCGTTGGTCTAGGGGGATGATTCTCGCTTAGGGTGCGAGAGGTCCCGGGATCAAAACCCGGACGAGCCC [GAA T19G T53A T59A] | 6.51 | 0.5 | 
GGCTCGTTTGTCTAGCGGTATGATTCTCGCTTAGGGTGCGAGAGGTCCCGGGTTCATATCCCGGACGAGCCC [CAT G9T] | 2.3 | 0.13 | 
GGCTCGTGGGTCTATGGGTCTGATTCTCGCTTAGGGTGCGAGAGGTCCCGGGTTCATATCCCGGACGAGCCC [GAT T8G G15T A20C] | 4.93 | 0.25 | 
GGCTCGTTGGTCTAGTGGTATGATTCTCGCTTAGGGTGCGAGAGGTCCCGGGTTCATACCCCGGACGAGCCC [TAT T59C] | 3.22 | 0.22 | 
GGCTCGTTGGTCTTGGGATATGATTCTCGCTTAGGGTGCGAGAGGTCCCGGGTTCAATTCCCGGACGAGCCC [GAA A14T G18A A58T] | 1.86 | 0.4 | 
GGCTCGTTGGTCTAGCGGTATGATTCTCGCTTAGGGTGCGAGAGGTCCCGGGATCAACTCCCGGACGAGCCC [CAA T53A A58C] | 3.94 | 0.25 | 

Two records picked at random from the list so far:
Variant | tRNA Pol-III promoter activity (log2) [1] | tRNA 3' processing efficiency [2] | tRNA 5' processing efficiency [3]
GGCTCGTTGGTCTTGGGGGATGATTCTCGCTTAGGGTGCGAGAGGTCCCGGGTTCAGATCCCGGACGAGCCC [GAG A14T T19G] | 3.36 | 0.38 | 
GGCTCGTTGGTCTAATGGGATGATTCTCGCTTAGGGTGCGAGAGGTCCCGGGTTCTAATCCCGGACGAGCCC [TTA G15A T19G] | 5.25 | 0.4 | 
